Measurements published in article doi:10.1101/2022.02.15.480428.
Results are given in words; binding and its absence hold for the method and conditions named. Binding seen in cells or lysates may run through a third protein. A yes stands for co-enrichment or nearness to the bait. Other partners may have been found. A no says only that the protein was not detected with the bait. Where a sequence is shown, tags or fusion partners need not be part of it.

Biological target: T1, APE-1 endogenously tagged with 3xFLAG:GFP (C. elegans) (UniProt Q9XVN3)
T1 sequence: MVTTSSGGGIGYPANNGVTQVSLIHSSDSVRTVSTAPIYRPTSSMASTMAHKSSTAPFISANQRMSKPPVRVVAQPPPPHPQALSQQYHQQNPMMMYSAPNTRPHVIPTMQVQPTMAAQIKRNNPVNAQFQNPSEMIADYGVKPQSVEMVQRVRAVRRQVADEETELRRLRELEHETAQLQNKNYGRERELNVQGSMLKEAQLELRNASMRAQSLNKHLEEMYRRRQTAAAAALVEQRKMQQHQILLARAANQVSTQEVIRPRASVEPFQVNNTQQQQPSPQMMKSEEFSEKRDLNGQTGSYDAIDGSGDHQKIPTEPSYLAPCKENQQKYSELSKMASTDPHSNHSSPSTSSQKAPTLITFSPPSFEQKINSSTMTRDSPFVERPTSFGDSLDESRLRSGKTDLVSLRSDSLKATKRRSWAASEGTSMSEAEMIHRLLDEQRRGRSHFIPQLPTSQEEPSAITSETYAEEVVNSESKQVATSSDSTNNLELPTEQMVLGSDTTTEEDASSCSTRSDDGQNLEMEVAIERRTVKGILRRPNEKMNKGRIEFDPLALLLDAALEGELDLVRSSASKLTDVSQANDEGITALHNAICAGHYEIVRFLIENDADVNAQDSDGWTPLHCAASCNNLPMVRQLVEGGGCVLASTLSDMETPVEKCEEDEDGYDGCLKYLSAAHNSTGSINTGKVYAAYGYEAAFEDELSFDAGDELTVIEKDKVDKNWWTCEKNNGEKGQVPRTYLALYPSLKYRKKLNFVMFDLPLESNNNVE
Assay: affinity purification with mass spectrometry

binding: no binding
B1: PAR-3 (protein, UniProt Q17353 1-1379)
chain: MSASSTSSSSTSCPEGGEPSGSCKSSDEGESTLKKRMQQYGIASGYANSSISTLDRSQYQSLPLNGTRRVTVQFGRMKIVVPWKESDQTVGQLADAALLRYKKARGMANEDRIHVHRLECASDGGILDMDDVLEEVFDLNYDQILAITDEANGGSTTPTYSQIQKQQHHYAQPLPYARKFDGGPSTPIASAFGSVTVNHQAHRAASPYNVGFARSNSRDFAPQPTHSKERRDSVVEVSSFDQIPQSGLRVSTPKPSRQSEDVIDGKPMNQPILRSSLRTEASGSRTEEATPVKQSRVTLSPEVEKKLAEQDERKSERRKHYDKNPGRFARGSDRKSRITDALLDARDRIADQLESQNPAEETKSQMIRVKIDQGPMPGTSLVTFPPIPEKSENEKQLGIEVNAVFDESSELPGTSEPTKLSSVQIMKIEDGGRIAKDGRIRVGDCIVAIDGKPVDQMSIIRVRASISDLAAVTSRPVTLIINRSLESFLEQESSAKPIQSALQQANTQYIGHTTVVELIKSSNGFGFTVTGRETAKGERLFYIGTVKPYGVALGHLKSGDRLLEINGTPTGQWTQSEIVEKLKETMVGEKIKFLVSRVSQSAIMSTSASSENKENEETLKVVEEEKIPQKLPLPALMTPPVPKDTPALSPSGASRFEIVIPFINGSSSAGLGVSLKARVSKKSNGSKVDCGIFIKNVMHGGAAFKEGGLRVDDRIVGVEDIDLEPLDNREAQAALAKKLKEVGMISSNVRLTISRYNECNPGQISRDLSRITVDASSPSPSSRMSSHTAPDSLLPSPATRGTSSSGADSSHSRQSSASSAVPAVPARLTERDSIVSDGTSRNDESELPDSADPFNREGLGRKSLSEKRGMGAAADPQHIKLFQDIKHQRQNSAPTSSTQKRSKSQPRSSSQRNYRSPMKLVDLPTTAAASASTNSQNLDDSDMLNRRSQSMESINRPVESILRGTGQIPTGSSSKVQFMQAASPDQHPFPPGAALLRLKNEESRSRDKSRRKSMGNPFSAMRNFFGFGSKSRDASPEKTPTESVQLRSVERPKSIIDERNNGSSERAPPPLPPHQSQRRGSGGNVFVDYGEPYGLIPQYPHNTTSGYESYADSELYDRYAAHRYHPRGGPIIDEDEYIYRQQSTSGNSPINTSSYVNYGLPASNAYHVGSRIPPQTSSGSISKTSGAMRRVYPAEYDEDVAYHQQIPQQSTRYQQGSGSGRGNADYHHMFNSWFAYTGGGAVGAAPVIKSSYGSSPVRIAAASAIERGESFVVEPVSGSSASATDRRGRSTSSGAVASGSSSTGFQYAAKEKYADARSGKFNGGSTRLFIPRHGGGLSAAAFATNFGGEAYETRGGGAGGSPSQYRRRDQGPPHRFPQY
